Values from PubChem BioAssay AID1259254 (NCATS, 2017).
Aim: 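Genome-wide screen for genes that prevent DNA re-replication in cancer cells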 (primary screen). Cell system: human HCT116 colorectal cancer cells. Reagents: single siRNA against human genes. Duration: 3 days. Measured: 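Imaged Hoechst DNA stain sorts each cell into a cycle phase by DNA amount; per plate, G2 fraction set to 0% for non-targeting and 100% for GMNN siRNA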. Direction: G2 robust z-score and G2 cells, % of GMNN control: higher = more G2 cells, more excess DNA replication; raw share of cells in G2: higher = larger share of cells with G2 DNA content. Hit rule: 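Active siRNAs have a G2 robust z of 5 or more median absolute deviations over the median, which in these data means about 38% or higher of GMNN control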.
This is an unselected part of about 59,000 reagents. About 1,550 of all reagents (2.6%) were called active. 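G2 share is only a proxy for re-replication; each gene was hit by three separate siRNAs, and active genes were retested.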 The raw values are shown without normalisation. A number with no mark means an inactive call. Reagents against one gene are numbered here. Reagent sequences are not shown. The record does not give: the amount of reagent.

The opening 2 records, ahead of the listing:
| gene knocked down | siRNA no. | G2 robust z-score | G2 cells, % of GMNN control | raw share of cells in G2 (%) |
| --- | --- | --- | --- | --- |
| ADAMTSL3 | 1 | -0.0448 | 2.65 | 3.73 |
| ADAMTSL3 | 2 | 0.912 | 9.39 | 10.2 |

The list itself, from the start:
| gene knocked down | siRNA no. | G2 robust z-score | G2 cells, % of GMNN control | raw share of cells in G2 (%) |
| --- | --- | --- | --- | --- |
| ADAMTSL3 | 1 | -0.0448 | 2.65 | 3.73 |
| ADAMTSL3 | 2 | 0.912 | 9.39 | 10.2 |
| ADAMTSL3 | 3 | -0.901 | -3.37 | 2.57 |
| SRP9 | 1 | 1.45 | 13.2 | 11 |
| SRP9 | 2 | 0.177 | 4.21 | 5.56 |
| SRP9 | 3 | -0.315 | 0.753 | 3.61 |
| PRR30 | 1 | -0.348 | 0.517 | 4.4 |
| PRR30 | 2 | -0.66 | -1.67 | 3.41 |
| PRR30 | 3 | 0.273 | 4.88 | 5.4 |
| CTBP1-DT | 1 | 0.596 | 7.16 | 7.12 |
| CTBP1-DT | 2 | 0.7 | 7.9 | 5.48 |
| CTBP1-DT | 3 | 0.03 | 3.18 | 3.93 |
| SMAP2 | 1 | -1.13 | -4.98 | 3.58 |
| SMAP2 | 2 | 1.52 | 13.6 | 9.17 |
| SMAP2 | 3 | -1.09 | -4.73 | 2.51 |
| VCAN | 1 | -0.708 | -2.01 | 2.66 |
| VCAN | 2 | 0.427 | 5.97 | 7.64 |
| VCAN | 3 | -0.154 | 1.88 | 3.79 |
| LOC728445 (retired record) | 1 | -1.11 | -4.85 | 1.7 |
| LOC728445 (retired record) | 2 | 0.984 | 9.89 | 6.36 |
| LOC728445 (retired record) | 3 | 0.53 | 6.69 | 6.13 |
| ART3 | 1 | -0.273 | 1.04 | 5.07 |
| ART3 | 2 | 1.86 | 16.1 | 10.8 |
| ART3 | 3 | -1.37 | -6.64 | 1.52 |
| SYN1 | 1 | -0.768 | -2.43 | 4.86 |
| SYN1 | 2 | -0.839 | -2.94 | 3.54 |
| SYN1 | 3 | 0.167 | 4.14 | 5.33 |
| XKR5 | 1 | -0.855 | -3.05 | 2.73 |
| XKR5 | 2 | 0.106 | 3.72 | 5.02 |
| XKR5 | 3 | -0.849 | -3.01 | 3.35 |
| GPAT2 | 1 | -0.664 | -1.71 | 3.26 |
| GPAT2 | 2 | 0.367 | 5.55 | 4.63 |
| GPAT2 | 3 | -0.822 | -2.81 | 2.09 |
| LOC644504 (retired record) | 1 | -0.0142 | 2.87 | 4.73 |
| LOC644504 (retired record) | 2 | 1.42 | 13 | 7.94 |
| LOC644504 (retired record) | 3 | 0.0255 | 3.15 | 4.06 |
| C4orf46 | 1 | 0.221 | 4.52 | 5.22 |
| C4orf46 | 2 | -0.793 | -2.61 | 2.08 |
| C4orf46 | 3 | -0.688 | -1.87 | 2.17 |
| TMEM179 | 1 | 0.599 | 7.18 | 6.24 |
| TMEM179 | 2 | -0.362 | 0.422 | 3.59 |
| TMEM179 | 3 | -0.366 | 0.395 | 4.8 |
| TAS2R7 | 1 | 6.17 (active) | 46.4 | 21.6 |
| TAS2R7 | 2 | -0.682 | -1.83 | 3.86 |
| TAS2R7 | 3 | -1.35 | -6.56 | 1.19 |
| HGF | 1 | -0.281 | 0.99 | 5.9 |
| HGF | 2 | 0.71 | 7.96 | 7.72 |
| HGF | 3 | -0.232 | 1.34 | 4.41 |
